These results are taken from PMC8973879.

Common to all, as to assay: co-IP; HEK293T cells transiently co-transfected with HA-FOXM1 and full-length or truncated Flag-STIL; immunoprecipitation with anti-Flag antibody; Western blotting
(Immunoblotting shows a protein as a band on a membrane.)

Assay [1] addresses T1, Flag-STIL, full-length wild type (a.a. 1-1288) (human) (UniProt Q15468).
T1 sequence: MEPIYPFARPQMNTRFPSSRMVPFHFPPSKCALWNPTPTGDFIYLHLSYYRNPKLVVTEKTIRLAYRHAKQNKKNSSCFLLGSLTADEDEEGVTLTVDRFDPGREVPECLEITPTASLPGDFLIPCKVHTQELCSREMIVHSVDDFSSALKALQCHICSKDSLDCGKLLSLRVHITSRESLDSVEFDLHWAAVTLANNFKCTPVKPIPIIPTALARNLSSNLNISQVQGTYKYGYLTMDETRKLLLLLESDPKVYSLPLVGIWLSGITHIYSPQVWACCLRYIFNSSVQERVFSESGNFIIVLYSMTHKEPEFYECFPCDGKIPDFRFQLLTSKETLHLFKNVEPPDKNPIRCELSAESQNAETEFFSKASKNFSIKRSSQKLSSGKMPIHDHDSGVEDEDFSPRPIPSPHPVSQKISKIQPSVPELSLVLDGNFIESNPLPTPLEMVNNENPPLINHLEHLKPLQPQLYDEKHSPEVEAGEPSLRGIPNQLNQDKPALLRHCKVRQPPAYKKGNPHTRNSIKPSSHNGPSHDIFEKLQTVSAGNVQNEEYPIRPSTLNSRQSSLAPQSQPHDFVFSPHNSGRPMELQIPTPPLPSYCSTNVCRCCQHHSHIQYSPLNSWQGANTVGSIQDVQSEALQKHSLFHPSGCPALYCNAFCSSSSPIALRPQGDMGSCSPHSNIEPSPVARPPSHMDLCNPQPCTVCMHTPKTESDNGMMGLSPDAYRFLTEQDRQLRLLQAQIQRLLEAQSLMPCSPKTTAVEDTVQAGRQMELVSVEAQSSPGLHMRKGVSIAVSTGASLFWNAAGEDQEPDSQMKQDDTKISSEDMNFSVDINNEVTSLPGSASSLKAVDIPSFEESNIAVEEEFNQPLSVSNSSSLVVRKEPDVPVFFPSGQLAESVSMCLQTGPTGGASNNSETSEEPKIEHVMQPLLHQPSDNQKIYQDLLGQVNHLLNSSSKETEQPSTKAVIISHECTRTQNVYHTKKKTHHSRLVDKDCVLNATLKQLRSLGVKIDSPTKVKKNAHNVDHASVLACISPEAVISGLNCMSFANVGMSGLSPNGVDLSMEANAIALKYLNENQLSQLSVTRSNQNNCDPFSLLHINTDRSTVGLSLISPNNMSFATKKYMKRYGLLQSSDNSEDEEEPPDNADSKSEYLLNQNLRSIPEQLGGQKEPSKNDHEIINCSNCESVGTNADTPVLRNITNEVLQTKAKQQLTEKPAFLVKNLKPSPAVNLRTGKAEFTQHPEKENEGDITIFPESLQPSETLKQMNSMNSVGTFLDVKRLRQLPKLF

For assay [2], the target named is T2, Flag-STIL-M (a.a. 420-780) (human) (UniProt Q15468).
T2 sequence: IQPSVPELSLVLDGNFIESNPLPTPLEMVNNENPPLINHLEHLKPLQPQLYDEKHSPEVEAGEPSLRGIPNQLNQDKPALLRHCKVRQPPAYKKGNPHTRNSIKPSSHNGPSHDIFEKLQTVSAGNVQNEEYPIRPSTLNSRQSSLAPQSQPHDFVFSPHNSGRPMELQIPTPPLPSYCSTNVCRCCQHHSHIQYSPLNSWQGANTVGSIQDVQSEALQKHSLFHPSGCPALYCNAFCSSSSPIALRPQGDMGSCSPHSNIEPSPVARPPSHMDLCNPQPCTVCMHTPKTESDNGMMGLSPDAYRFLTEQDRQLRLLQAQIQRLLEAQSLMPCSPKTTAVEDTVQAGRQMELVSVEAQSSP

Assay [3] deals with T3, Flag-STIL-N (a.a. 1-628) (human) (UniProt Q15468).
T3 sequence: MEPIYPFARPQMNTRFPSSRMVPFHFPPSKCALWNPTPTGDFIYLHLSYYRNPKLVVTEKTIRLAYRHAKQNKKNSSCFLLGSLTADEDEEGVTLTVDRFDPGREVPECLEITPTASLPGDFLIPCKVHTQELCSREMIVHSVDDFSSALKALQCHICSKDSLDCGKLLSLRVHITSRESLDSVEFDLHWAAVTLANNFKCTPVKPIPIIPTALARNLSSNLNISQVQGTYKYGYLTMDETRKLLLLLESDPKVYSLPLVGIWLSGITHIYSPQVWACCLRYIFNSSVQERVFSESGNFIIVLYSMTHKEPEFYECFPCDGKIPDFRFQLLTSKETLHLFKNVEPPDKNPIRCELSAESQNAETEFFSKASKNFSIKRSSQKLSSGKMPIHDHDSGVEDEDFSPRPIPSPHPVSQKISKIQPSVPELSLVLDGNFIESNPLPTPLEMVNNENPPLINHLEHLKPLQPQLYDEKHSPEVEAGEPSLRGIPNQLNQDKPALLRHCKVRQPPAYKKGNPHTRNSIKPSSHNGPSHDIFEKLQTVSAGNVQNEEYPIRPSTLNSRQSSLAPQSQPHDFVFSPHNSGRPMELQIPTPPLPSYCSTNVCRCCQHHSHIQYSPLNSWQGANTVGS

The target of assay [4] is T4, Flag-STIL-C (a.a. 780-1288) (human) (UniProt Q15468).
T4 sequence: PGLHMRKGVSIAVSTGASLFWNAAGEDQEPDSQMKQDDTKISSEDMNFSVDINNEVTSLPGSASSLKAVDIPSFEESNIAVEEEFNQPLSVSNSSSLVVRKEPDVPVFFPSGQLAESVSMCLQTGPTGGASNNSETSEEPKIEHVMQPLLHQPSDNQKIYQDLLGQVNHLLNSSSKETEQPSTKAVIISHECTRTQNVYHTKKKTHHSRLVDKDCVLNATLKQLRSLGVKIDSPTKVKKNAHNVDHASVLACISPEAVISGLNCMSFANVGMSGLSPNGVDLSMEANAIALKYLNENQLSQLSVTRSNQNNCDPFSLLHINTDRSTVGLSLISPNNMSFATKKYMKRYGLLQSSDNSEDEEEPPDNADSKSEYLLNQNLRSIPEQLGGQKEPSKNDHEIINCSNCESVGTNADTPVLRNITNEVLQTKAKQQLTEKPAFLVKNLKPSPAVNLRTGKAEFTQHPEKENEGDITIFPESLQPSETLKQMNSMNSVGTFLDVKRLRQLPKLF

These are yes or no findings as the source states them, for the method shown. Binding seen in cells or lysates may run through a third protein. Some results given as binding are weak or reduced against the parent protein; the word gives no strength. Tags and fused reporters may be left off the sequences shown.

B1: HA-FOXM1 (protein, UniProt Q08050 1-763)
chain: MKTSPRRPLILKRRRLPLPVQNAPSETSEEEPKRSPAQQESNQAEASKEVAESNSCKFPAGIKIINHPTMPNTQVVAIPNNANIHSIITALTAKGKESGSSGPNKFILISCGGAPTQPPGLRPQTQTSYDAKRTEVTLETLGPKPAARDVNLPRPPGALCEQKRETCADGEAAGCTINNSLSNIQWLRKMSSDGLGSRSIKQEMEEKENCHLEQRQVKVEEPSRPSASWQNSVSERPPYSYMAMIQFAINSTERKRMTLKDIYTWIEDHFPYFKHIAKPGWKNSIRHNLSLHDMFVRETSANGKVSFWTIHPSANRYLTLDQVFKPLDPGSPQLPEHLESQQKRPNPELRRNMTIKTELPLGARRKMKPLLPRVSSYLVPIQFPVNQSLVLQPSVKVPLPLAASLMSSELARHSKRVRIAPKVLLAEEGIAPLSSAGPGKEEKLLFGEGFSPLLPVQTIKEEEIQPGEEMPHLARPIKVESPPLEEWPSPAPSFKEESSHSWEDSSQSPTPRPKKSYSGLRSPTRCVSEMLVIQHRERRERSRSRRKQHLLPPCVDEPELLFSEGPSTSRWAAELPFPADSSDPASQLSYSQEVGGPFKTPIKETLPISSTPSKSVLPRTPESWRLTPPAKVGGLDFSPVQTSQGASDPLPDPLGLMDLSTTPLQSAPPLESPQRLLSSEPLDLISVPFGNSSPSDIDVPKPGSPEPQVSGLAANRSLTEGLVLDTMNDSLSKILLDISFPGLDEDPLGPDNINWSQFIPELQ
Turning to B1, the binding result was “binds” in assay [1], “binds” in assay [2], “no binding” in assay [3] and “no binding” in assay [4].
